The values that follow come from PubChem BioAssay AID488840 (Broad Institute, 2010).

Amino acid sequences for entries named in this document (tags omitted). A change or cut given only in a name is not applied to a line headed by its entry.
UniProt O75164: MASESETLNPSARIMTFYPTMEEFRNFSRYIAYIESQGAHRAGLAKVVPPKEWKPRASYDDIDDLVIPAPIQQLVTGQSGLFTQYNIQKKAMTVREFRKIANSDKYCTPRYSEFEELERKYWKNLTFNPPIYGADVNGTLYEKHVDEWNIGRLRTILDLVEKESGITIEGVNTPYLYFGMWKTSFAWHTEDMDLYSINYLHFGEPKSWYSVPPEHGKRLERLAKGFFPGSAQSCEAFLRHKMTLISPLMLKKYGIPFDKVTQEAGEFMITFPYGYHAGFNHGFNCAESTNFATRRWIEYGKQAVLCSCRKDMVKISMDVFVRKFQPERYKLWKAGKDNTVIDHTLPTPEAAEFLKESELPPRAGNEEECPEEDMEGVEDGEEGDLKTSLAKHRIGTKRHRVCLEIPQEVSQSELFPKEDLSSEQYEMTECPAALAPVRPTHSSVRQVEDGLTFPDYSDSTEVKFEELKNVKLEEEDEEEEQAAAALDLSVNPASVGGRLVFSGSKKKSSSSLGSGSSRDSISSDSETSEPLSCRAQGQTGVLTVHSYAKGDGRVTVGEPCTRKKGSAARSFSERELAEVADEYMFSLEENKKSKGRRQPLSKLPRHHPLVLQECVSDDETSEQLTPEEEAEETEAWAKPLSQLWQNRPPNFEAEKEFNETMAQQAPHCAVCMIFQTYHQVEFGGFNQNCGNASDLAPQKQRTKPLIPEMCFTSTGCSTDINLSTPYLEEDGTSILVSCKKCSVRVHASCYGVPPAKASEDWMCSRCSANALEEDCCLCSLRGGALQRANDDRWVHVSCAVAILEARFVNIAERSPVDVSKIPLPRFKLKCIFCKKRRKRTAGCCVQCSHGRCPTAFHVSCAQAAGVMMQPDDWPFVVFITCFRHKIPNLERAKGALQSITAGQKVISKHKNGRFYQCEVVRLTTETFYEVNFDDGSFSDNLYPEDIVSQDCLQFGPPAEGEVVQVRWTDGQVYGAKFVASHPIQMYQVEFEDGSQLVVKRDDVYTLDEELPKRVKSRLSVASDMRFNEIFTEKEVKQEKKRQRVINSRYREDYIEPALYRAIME

The campaign covered roughly 1,400 compounds. About 45 (3%) were called active.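 The calls were made as follows: active = half-maximal dose of signal decrease from fit no higher than ten times the top valid tested dose; inconclusive = fit invalid, or curve flat with 30 to 70% inhibition; inactive = the rest.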 The list shows a part of the results. Entries with a potency or affinity are not part of this list.

This experiment has as its target Lysine-specific demethylase 4A (Homo sapiens) (UniProt O75164). Put plainly: inhibition of JMJD2A H3K9me3 demethylation – biochemical, DELFIA europium, cherry-picked samples, selectivity assay for GASC-1 inhibitor project, dose response (AID 488840).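 Also: europium signal reports the dimethyl H3K9 product detected by antibody so inhibitors lower it; 0% = median of neutral control wells and -100% = median of positive control wells.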 The settings on record: GST-JMJD2A(1-420) H3K9me3 demethylation; at 6 µM (top of the series) unless noted.
As for `Cc1ccccc1C(=O)Nc1ccccc1C(=O)NC1CC1`, the activity change, negative = inhibition was inactive: -3.94%.

With `O=C(Nc1ccccc1)N(CCc1nc2ccccc2[nH]1)C1CCCC1`, the activity change, negative = inhibition was inactive: -5.44%. The result for `O=c1oc2ccccc2c2c1C(c1ccc(Cl)cc1)Nc1ccc3ccccc3c1-2` (centres undefined) reads inactive: -0.98%; that for `COc1ccccc1C(c1nnnn1Cc1ccccc1)N1CCN(C2CCCC2)CC1` (centres undefined), inactive: 1.39%. The result for `CCOc1cccc(SCc2noc(C(=O)NC(C)C)c2C(=O)O)c1` reads inactive: 2.83%; that for `CC1SC(=NC(=O)C(C)N2C(=O)c3ccccc3C2=O)NC1=O` (centres undefined), inactive: -4.21%. The result for `C[C@H](CO)N1C[C@H](C)[C@@H](CN(C)C(=O)Nc2ccc3c(c2)OCO3)Oc2ccc(NC(=O)Cn3cnnn3)cc2C1=O` reads inactive: 2.7%.

In the case of `Cc1cc(Cl)c(S(=O)(=O)Nc2ccc3c(c2)OCCO3)cc1OCC(N)=O`, the activity change, negative = inhibition is inactive: -3.26%. With `O=C(Oc1cccc(NC(=O)c2ccco2)c1)c1cccc(S(=O)(=O)N2CCCC2)c1` the figure was inactive: -3.86%; with `COc1ccc(NC(=O)CCN2CCCCCC2)cc1`, inactive: -6.22%; with `COc1ccc(NC(=O)Nc2ccc3c(c2)C(=O)N([C@H](C)CO)C[C@H](C)[C@@H](CN(C)S(=O)(=O)c2cccs2)O3)cc1`, inactive: 3.58%. Consider `COc1cccc(/C=C/C(=O)OCC(=O)NCc2ccc(Cl)cc2)c1`, for which the activity change, negative = inhibition was inactive: -2.17%. With `Cc1sc2ncnc(OCC(=O)N3CCN(S(=O)(=O)c4ccc(Cl)cc4)CC3)c2c1C` the figure was inactive: -1.98%; with `Cc1ccc(S(=O)(=O)N2CCOCC2)cc1C(=O)NNC(=O)c1ccoc1C`, inactive: 1.14%.

With `CC(C)CCSc1cc(NCCO)c([N+](=O)[O-])c2nonc12`, the activity change, negative = inhibition was inactive: -0.0613%.

Consider `Cc1noc(C)c1C(=O)Nc1ccc2ccccc2c1`, for which the activity change, negative = inhibition was inactive: 1.95%. Take `O=C(CNC(=O)c1ccc(S(=O)(=O)N2CCCC2)cc1)N/N=C/c1ccccc1`: the activity change, negative = inhibition is inactive: 0.64%. Regarding `C=CCNCCOc1cccc(Br)c1`, the activity change, negative = inhibition was inactive: -3.77%.

`c1ccn2c(SCc3cn4ccsc4n3)nnc2c1`: the activity change, negative = inhibition was inactive: -1.26%. The result for `O=C1C=C(NCc2ccc3c(c2)OCO3)CC(c2ccccc2)C1` (centres undefined) reads inactive: 8.95%. With `CCN(C[C@H]1N[C@@](C)(C(=O)OC)[C@H]2C(=O)N(C)C(=O)[C@@H]12)C(=O)Nc1ccc(C)cc1` the figure was inactive: -3.13%. With `COC(=O)C1=C(C)N(CCc2cc(OC)c(OC)c(OC)c2)C(=O)N[C@H]1c1cccs1` the figure was inactive: -1.51%.

For `CN(C)S(=O)(=O)c1ccc(NC(=S)NC(=O)C2CCC2)cc1`, the activity change, negative = inhibition is inactive: 7.25%. The result for `CN(C)S(=O)(=O)c1ccc(N2CCCC2)c(C(=O)Nc2nc3ccc(F)cc3s2)c1` reads inactive: -0.679%. The result for `COc1cccc(-n2nnc3c(=O)n(Cc4ccccc4F)cnc32)c1` reads inactive: -6.03%; that for `Cc1ccccc1-c1ccc(=O)n(CC(=O)Nc2ccc(N3CCOCC3)cc2)n1`, inactive: 0.554%.

For `CCN(CCNS(=O)(=O)c1ccc2c(c1)oc(=O)n2C)c1ccccc1`, the activity change, negative = inhibition was inactive: -1.29%. The result for `CCOC(=O)c1nc(C)n(-c2cc(Cl)ccc2Cl)n1` reads inactive: -1.88%; that for `CCCCCCc1cc2cc(-c3nnc(-c4ccccc4)o3)c(=O)oc2cc1O`, inactive: 5.66%; that for `CNC[C@@H]1Oc2ccc(NC(=O)Nc3cccc4ccccc34)cc2C(=O)N([C@@H](C)CO)C[C@@H]1C`, inactive: 1.97%. With `O=C(NCC(=O)N1CCCCC1)c1sc2ccccc2c1Cl` the figure was inactive: -0.136%. The result for `C[C@H](CO)N1C[C@H](C)[C@@H](CN(C)C(=O)Nc2ccc3c(c2)OCO3)Oc2c(NS(=O)(=O)c3ccc(F)cc3)cccc2C1=O` reads inactive: -1.91%; that for `CCN(CC)C(=O)N1CCc2ccccc2C1CN1C(=O)c2ccccc2C1=O` (centres undefined), inactive: -1.77%.

Regarding `COc1ccc(/C=N/NC(=O)c2cc(C)on2)c2ccccc12`, the activity change, negative = inhibition is inactive: -2.86%.

As for `O=C(NC1(O)C(=O)c2ccccc2C1=O)c1c(Cl)cccc1Cl`, the activity change, negative = inhibition is inactive: 5.82%. Regarding `CCCC(=O)Nc1nc2c(c(=O)[nH]1)CCCC2`, the activity change, negative = inhibition was inactive: -2.07%. Consider `Cc1c(C(=O)Nc2ccc3c(c2)OCO3)sc2ncn(CC(=O)N3CC(C)CC(C)C3)c(=O)c12` (centres undefined), for which the activity change, negative = inhibition is inactive: -0.463%. The result for `COc1cc(NS(=O)(=O)c2ccc(NC(=O)c3ccc(C)o3)cc2)nc(OC)n1` reads inactive: -1.8%; that for `O=C(OCc1nnc(-c2ccccc2)o1)c1cc(S(=O)(=O)N2CCOCC2)c(Cl)cc1Cl`, inactive: 6.12%. The result for `CN1C(=O)Cc2cc(S(=O)(=O)NCCc3ccc(Cl)cc3)ccc21` reads inactive: -3.24%. Turning to `COC(=O)[C@]1(Cc2ccccc2)N[C@H](CN(C)C(=O)Nc2ccccc2)[C@@H]2C(=O)N(C)C(=O)[C@@H]21`, the activity change, negative = inhibition was inactive: 6.68%. The result for `CCN(CC)S(=O)(=O)c1ccc(N2CCOCC2)c(NC(=O)c2ccc3c(c2)OCCO3)c1` reads inactive: 4.19%. The result for `COc1ccccc1/C=C1/SC(=S)N(C(C)C(=O)NC2C=CS(=O)(=O)C2)C1=O` (centres undefined) reads inactive: -11.8%; that for `O=C(COC(=O)c1cccc(S(=O)(=O)NCc2ccccc2)c1)Nc1ccccc1OC(F)F`, inactive: 0.665%. The result for `COc1cccc(C(c2c(C)[nH]n(-c3ccccc3)c2=O)c2c(C)[nH]n(-c3ccccc3)c2=O)c1O` reads inactive: 1.69%; that for `C[C@H](CO)N1C[C@H](C)[C@@H](CN(C)Cc2ccc(Cl)c(Cl)c2)Oc2c(NS(=O)(=O)c3cn(C)cn3)cccc2C1=O`, inactive: -0.723%.

For the compound `Cc1ccccc1C(=O)OCCCN=C1NS(=O)(=O)c2ccccc21`, the activity change, negative = inhibition is inactive: 7.05%. For the compound `CCC(C)C(NC(=O)OC(C)(C)C)C(=O)NC(C(=O)N1CCCC1C(N)=O)C(C)CC` (centres undefined), the activity change, negative = inhibition is inactive: 2.85%.

Regarding `COC(=O)C1CCN(C(=O)COC(=O)COc2ccc(C#N)cc2)CC1`, the activity change, negative = inhibition is inactive: -0.0304%. With `CCOc1cc(NC(=O)c2ccco2)c(OCC)cc1NC(=O)c1ccco1` the figure was inactive: 11.3%. The result for `COc1ccc(-c2cc3c(=O)n(CC(=O)NCc4cccnc4)nc(C)n3n2)cc1` reads inactive: -7.08%; that for `COc1ccc(C(=O)N2CCC(C(=O)NCc3ccccn3)CC2)cc1`, inactive: 8.19%; that for `O=C(Cn1c(=O)sc2ccccc21)NCc1ccco1`, inactive: -6.24%.

With `CC(=O)c1c(Nc2ccccc2)sc(C(=O)c2ccccc2)c1C`, the activity change, negative = inhibition is inactive: 1.35%.

As to `COc1ccc(NC(=O)c2cccc(N3C(=O)C4CC=C(C)CC4C3=O)c2)c(OC)c1` (centres undefined), the activity change, negative = inhibition was inactive: -5%. The result for `COc1ccccc1OCCOCCn1cnc2ccccc2c1=O` reads inactive: 4.73%; that for `COc1cc(-c2nnco2)cc(OC)c1OC`, inactive: -8.4%. With `Nc1ncnc2c1ncn2[C@@H]1O[C@H](CNCC#Cc2ccccc2)[C@@H](O)[C@H]1O` the figure was inactive: 4.51%. Consider `O=C(Nc1ccc(-c2csc(Nc3ccc(Cl)cc3)n2)cc1)c1ccccc1`, for which the activity change, negative = inhibition is inactive: -6.43%. The result for `O=C(CC1C[C@H](C(=O)N2CCCCC2)[C@@]2(CCc3ccccc3)c3[nH]c4ccccc4c3CCN2C1=O)NCCC1=CCCCC1` (some centres undefined) reads inactive: 2.22%; that for `O=C(NCC1CCCO1)Nc1ccccc1` (centres undefined), inactive: 4.13%. The result for `Cc1nnc(N2C(=O)C(=O)/C(=C(/O)c3ccc4c(c3)CC(C)O4)C2c2ccccc2F)s1` (centres undefined) reads inactive: 1.69%; that for `O=C(O)CSc1nnc(COc2cccc3cccnc23)n1-c1cccc(C(F)(F)F)c1`, inactive: -0.268%.

Turning to `COc1ccc(/C=C(/C(=O)NCc2ccccc2)c2ccccc2)cc1`, the activity change, negative = inhibition is inactive: -0.518%. The result for `CCOC(=O)c1[nH]c(CSc2nnnn2-c2ccccc2C)c(C(=O)OCC)c1C` reads inactive: 1.13%.

Take `CCOC(=O)c1c(S(=O)(=O)N2CCN(c3ccc(F)cc3)CC2)c(C)n(C)c1C`: the activity change, negative = inhibition was inactive: -1.22%. With `COc1ccc(CCNC(=O)c2cccc(NS(=O)(=O)c3ccccc3F)c2)cc1OC` the figure was inactive: 5.64%; with `CC1(C)CC(=O)C2=C(C1)OC(N)=C(C#N)C2C#Cc1ccccc1` (centres undefined), inactive: 4.74%; with `CC(C)c1ccc(NC2CCCN(C(=O)CCN3CCCCC3=O)C2)cc1` (centres undefined), inactive: -4.65%. As for `c1cc2c(cc1C1CCCCC1)c1c3n2CCCNC3CCC1` (centres undefined), the activity change, negative = inhibition is inactive: -2.29%.

In the case of `COc1ccc(C(C(C(=O)c2ccco2)N2CCOCC2)N2CCOCC2)cc1` (centres undefined), the activity change, negative = inhibition was inactive: 1.47%. For the compound `COc1ccc(C(=O)NCc2nnc(SCC(=O)N3CCc4ccccc43)o2)cc1OC`, the activity change, negative = inhibition is inactive: 0.424%. Take `COCCNC(=S)N1CCN(C)CC1`: the activity change, negative = inhibition is inactive: -7.29%. With `C#CCOCCOCCOCCNc1nc(N2CCN(C(=O)[C@H](CCCCN)n3cc(CN)nn3)CC2)nc(N2CCN(C(=O)[C@H](CCC(=O)O)n3cc([C@@H](N)CCSC)nn3)CC2)n1` the figure was inactive: 1.72%; with `COc1ccc(OC)c(Nc2nc(-c3cccs3)cs2)c1`, inactive: 4.65%.

Consider `O=C1NC(=S)N/C1=C/c1cc2c(cc1[N+](=O)[O-])OCO2`, for which the activity change, negative = inhibition is inactive: 3.33%. The result for `Cc1ccc(CNC(=O)CCC2CCCN(Cc3ccc4cccc(F)c4n3)C2)o1` (centres undefined) reads inactive: 1.48%.

For `COc1ccc(CNCC(=O)Nc2sccc2C#N)cc1`, the activity change, negative = inhibition was inactive: -5.92%. The result for `O=C(NCc1ccccn1)c1ccc(OC2CCN(Cc3cccs3)CC2)cc1` reads inactive: -3.92%. With `CC(O)CNc1nc2ccccc2n1CC(=O)NC12CC3CC(CC(C3)C1)C2` (centres undefined) the figure was inactive: -6.59%.

For `O=C(N/N=C/c1nn(-c2ccccc2)cc1-c1ccccc1)c1ccncc1`, the activity change, negative = inhibition is inactive: 2.88%. With `CCN(CC)C(CNS(=O)(=O)c1ccc(Cl)cc1)c1ccccc1` (centres undefined) the figure was inactive: -0.453%; with `CC(=O)c1sc(NC(=O)c2ccc(C)cc2)nc1C`, inactive: -7.38%; with `CC(C)N(C(=O)[C@H]1CC(CC(=O)NCc2cccc(C(F)(F)F)c2)C(=O)N2CCc3c([nH]c4ccccc34)[C@]12C)C(C)C` (some centres undefined), inactive: 0.968%.
